The results in this text go back to doi:10.1101/2024.06.07.597857.

Sequences of proteins named here, by UniProt entry; tags and fusion partners are left off.
UniProt P35222: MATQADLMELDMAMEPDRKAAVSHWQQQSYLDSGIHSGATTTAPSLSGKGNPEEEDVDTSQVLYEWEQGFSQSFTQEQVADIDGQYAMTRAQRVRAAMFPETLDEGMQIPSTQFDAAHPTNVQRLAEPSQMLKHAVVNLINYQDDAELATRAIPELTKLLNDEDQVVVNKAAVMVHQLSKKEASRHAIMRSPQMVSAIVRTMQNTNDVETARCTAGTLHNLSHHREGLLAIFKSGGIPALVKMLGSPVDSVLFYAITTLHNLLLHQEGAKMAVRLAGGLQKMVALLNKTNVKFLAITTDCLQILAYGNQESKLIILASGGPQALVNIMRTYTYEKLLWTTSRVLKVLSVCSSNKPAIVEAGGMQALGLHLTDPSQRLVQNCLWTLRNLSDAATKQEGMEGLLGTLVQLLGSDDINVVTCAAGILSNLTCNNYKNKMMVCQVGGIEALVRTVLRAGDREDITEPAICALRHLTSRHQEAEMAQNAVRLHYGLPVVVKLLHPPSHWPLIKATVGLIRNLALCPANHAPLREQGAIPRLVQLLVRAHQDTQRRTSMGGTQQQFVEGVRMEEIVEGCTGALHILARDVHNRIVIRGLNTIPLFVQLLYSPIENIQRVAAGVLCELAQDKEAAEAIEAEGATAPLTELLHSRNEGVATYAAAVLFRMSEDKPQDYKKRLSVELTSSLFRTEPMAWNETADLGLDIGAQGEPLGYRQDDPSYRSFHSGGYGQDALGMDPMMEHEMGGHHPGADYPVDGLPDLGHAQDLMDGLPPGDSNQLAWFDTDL
UniProt Q7Z4V5: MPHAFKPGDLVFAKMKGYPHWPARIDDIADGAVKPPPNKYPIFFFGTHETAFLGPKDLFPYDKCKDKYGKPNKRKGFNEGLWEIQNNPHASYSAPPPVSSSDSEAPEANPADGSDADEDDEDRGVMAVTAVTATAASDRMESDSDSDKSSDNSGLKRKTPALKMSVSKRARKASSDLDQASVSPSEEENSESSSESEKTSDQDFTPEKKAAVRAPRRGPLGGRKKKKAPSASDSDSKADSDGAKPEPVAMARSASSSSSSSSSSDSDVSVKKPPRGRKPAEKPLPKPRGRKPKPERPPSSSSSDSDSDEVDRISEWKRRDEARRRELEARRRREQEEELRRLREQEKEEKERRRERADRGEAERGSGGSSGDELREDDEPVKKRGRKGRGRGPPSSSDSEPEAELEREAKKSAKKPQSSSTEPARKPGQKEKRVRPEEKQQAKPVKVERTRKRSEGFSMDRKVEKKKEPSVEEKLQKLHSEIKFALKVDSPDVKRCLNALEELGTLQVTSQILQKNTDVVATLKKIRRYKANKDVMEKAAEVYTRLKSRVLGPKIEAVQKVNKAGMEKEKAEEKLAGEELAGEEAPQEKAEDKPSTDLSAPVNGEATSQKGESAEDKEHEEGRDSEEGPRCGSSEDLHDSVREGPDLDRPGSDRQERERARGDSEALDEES

No constants are given. Whether binding was seen depends on the method and setting. Binding seen in cells or lysates may run through a third protein. Some entries that bind do so weakly or less than the wild type.

The target in the assay is β-catenin (human (endogenous in ovarian carcinoma cells)) (UniProt P35222). As to the kind of experiment: co-IP.

“hepatoma-derived growth factor related protein 2 (HRP2) (from UniProt Q7Z4V5 1-671)”: the binding result is reported as “binds”.
